This assay concerns the target BNIP3(1–158)-GST (human). The assay can be described thus: pull-down; beads precoated with GST, NIX-GST or BNIP3-GST, incubated overnight with HeLa cell lysate, SDS–PAGE and western blot for WIPI proteins; only the target purified. A general note: In western blotting, separated proteins are transferred to a membrane and probed.

No constants are given. Whether binding was seen depends on the method and setting. In cells and extracts the contact can be indirect. Binding calls can cover weak binding; strength is not graded here.

B1: WIPI2 (endogenous) (protein, UniProt Q9Y4P8 1-454)
chain: MNLASQSGEAGAGQLLFANFNQDNTEVKGASRAAGLGRRAVVWSLAVGSKSGYKFFSLSSVDKLEQIYECTDTEDVCIVERLFSSSLVAIVSLKAPRKLKVCHFKKGTEICNYSYSNTILAVKLNRQRLIVCLEESLYIHNIRDMKVLHTIRETPPNPAGLCALSINNDNCYLAYPGSATIGEVQVFDTINLRAANMIPAHDSPLAALAFDASGTKLATASEKGTVIRVFSIPEGQKLFEFRRGVKRCVSICSLAFSMDGMFLSASSNTETVHIFKLETVKEKPPEEPTTWTGYFGKVLMASTSYLPSQVTEMFNQGRAFATVRLPFCGHKNICSLATIQKIPRLLVGAADGYLYMYNLDPQEGGECALMKQHRLDGSLETTNEILDSASHDCPLVTQTYGAAAGKGTYVPSSPTRLAYTDDLGAVGGACLEDEASALRLDEDSEHPPMILRTD
Turning to B1, the binding result is “binds”.

The values above are taken from PMC12339401.
